From patent US20240174980A1, “PROCESS FOR MANUFACTURE OF A COMPOSITION FOR THE TREATMENT OF OSTEOARTHRITIS IN A SUBJECT” (STEM CELLX EUROPE KFT, priority 2021, published 2024)

System: differentiating MSCs
Assay: Transcriptome analysis (next-generation sequencing, GO analysis) of differentiating MSCs treated with KYNA or THBS1
Type: cell-based, canine
Conditions: 50 ng/ml THBS1 added after 7 days of differentiation, for 5 days

## THBS1: Thrombospondin 1, adhesive glycoprotein encoded by the THBS1 gene, added to differentiating MSCs at 50 ng/ml
  THBS1 treatment (Significance), GO:0000278 mitotic cell cycle: 4.6E−08
  THBS1 treatment (Significance), GO:0001503 bone formation: 1.72E−07
  THBS1 treatment (Significance), GO:0001568 blood vessel formation: 1.46E−06
  THBS1 treatment (Significance), GO:0031012 extracellular matrix: 1.45E−06
  THBS1 treatment (Significance), GO:0051216 cartilage formation: 0.0042
  THBS1 treatment (Significance), GO:0062023 collagen-containing extracellular matrix: 1.09E−05
